The assay deals with T1, human PTPRJ (human) (UniProt Q12913).
T1 sequence (looked up): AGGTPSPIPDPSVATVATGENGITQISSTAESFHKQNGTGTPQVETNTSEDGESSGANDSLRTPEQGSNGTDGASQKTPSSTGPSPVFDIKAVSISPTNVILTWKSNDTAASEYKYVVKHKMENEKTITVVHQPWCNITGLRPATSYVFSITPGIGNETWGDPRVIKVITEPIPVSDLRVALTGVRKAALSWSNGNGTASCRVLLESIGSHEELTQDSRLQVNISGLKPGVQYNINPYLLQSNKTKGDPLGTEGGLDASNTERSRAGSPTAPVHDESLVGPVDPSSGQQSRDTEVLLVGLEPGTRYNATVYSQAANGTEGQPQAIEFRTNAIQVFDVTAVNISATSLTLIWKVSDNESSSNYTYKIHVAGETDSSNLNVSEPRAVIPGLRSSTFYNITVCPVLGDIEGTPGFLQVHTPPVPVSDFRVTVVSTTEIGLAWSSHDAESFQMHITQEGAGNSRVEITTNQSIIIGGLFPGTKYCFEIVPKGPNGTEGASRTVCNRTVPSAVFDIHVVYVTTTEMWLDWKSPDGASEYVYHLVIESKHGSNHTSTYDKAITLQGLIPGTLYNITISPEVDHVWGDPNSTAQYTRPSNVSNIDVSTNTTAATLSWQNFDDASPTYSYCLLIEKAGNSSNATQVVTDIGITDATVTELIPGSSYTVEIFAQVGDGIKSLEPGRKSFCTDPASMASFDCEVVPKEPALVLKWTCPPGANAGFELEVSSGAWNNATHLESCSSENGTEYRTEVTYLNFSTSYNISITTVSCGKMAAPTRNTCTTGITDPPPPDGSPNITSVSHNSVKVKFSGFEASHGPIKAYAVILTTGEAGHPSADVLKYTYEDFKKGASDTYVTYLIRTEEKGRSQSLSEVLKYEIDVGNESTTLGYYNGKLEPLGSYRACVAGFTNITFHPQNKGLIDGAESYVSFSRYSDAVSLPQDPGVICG
In words: ELISA, receptor coated at 10 µg/mL, HLA-β2m-Fc at 10 µg/mL, anti-human Fc-HRP.

Protein sequences, listed by entry. Tags and fused reporters are not part of them. Lines headed by an entry give the natural chain unless they say otherwise; changes in a name come on top.
UniProt P61769: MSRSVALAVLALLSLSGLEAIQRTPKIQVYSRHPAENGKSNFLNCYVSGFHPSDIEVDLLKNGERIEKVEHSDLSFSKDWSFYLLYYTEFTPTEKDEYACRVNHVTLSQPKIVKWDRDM

The record followed here is patent US11279747.

No constants are given. Whether binding was seen depends on the method and setting. Some binding calls cover weakened binding; strength is not graded here.

For the substance “C08-β2m-Fc (from UniProt P61769 21-119) (Fc fusion)”, the binding entry was “binds”.

For “C12-β2m-Fc (from UniProt P61769 21-119) (Fc fusion)”, the binding entry is on record as “binds”.
